“And” between values parts separate entries of the source, which are not always exact repeats. Equal values may be shown once. The list shows a part of the results.

What all share (assay): protein microarray (ProtoArray v5.0), streptavidin-Alexa Fluor 647
Conditions in all cases: 3'-biotin; 20 mM Tris (pH 7.5), 5 mM MgCl2, 100 mM KCl, 0.1% Tween-20, A/T-rich and random oligonucleotide blockers; temperature not stated; high values mean tight binding

Assay [1] concerns LGALS1 (human).
Assay [2] concerns LGALS3 (human).
In assay [3] the test system is LGALS8 (human).
The test system of assay [4] is LGI1 (human).
Assay [5] concerns LILRB1 (human).
The test system of assay [6] is LILRB2 (human).
The test system of assay [7] is LIM domain kinase 2 (human).
Assay [8] concerns LIMD1 (human).
In assay [9] the test system is LINE-1 type transposase domain-containing protein 1 (human).
For assay [10], the system named is LMAN1L (human).

In the case of “GGGAGGCTGAGGCAGG [G4-1 biotinylated (PQS2)]”, the binding signal in assay [1] is -0.322 z-score; in assay [2], -0.292 z-score and -0.351 z-score; in [3], -0.296 z-score and -0.275 z-score; in [4] it was -0.295 z-score; in assay [5], -0.343 z-score; in assay [6], -0.334 z-score. Besides, the binding signal was -0.295 z-score in [7], -0.346 z-score in assay [8], -0.253 z-score in assay [9] and -0.344 z-score in [10].
